These results are taken from patent US20240398804A1.

Chains of the proteins cited; added tags and fusions are not shown. Residues count along the entry.
UniProt P07947, residues 2-543: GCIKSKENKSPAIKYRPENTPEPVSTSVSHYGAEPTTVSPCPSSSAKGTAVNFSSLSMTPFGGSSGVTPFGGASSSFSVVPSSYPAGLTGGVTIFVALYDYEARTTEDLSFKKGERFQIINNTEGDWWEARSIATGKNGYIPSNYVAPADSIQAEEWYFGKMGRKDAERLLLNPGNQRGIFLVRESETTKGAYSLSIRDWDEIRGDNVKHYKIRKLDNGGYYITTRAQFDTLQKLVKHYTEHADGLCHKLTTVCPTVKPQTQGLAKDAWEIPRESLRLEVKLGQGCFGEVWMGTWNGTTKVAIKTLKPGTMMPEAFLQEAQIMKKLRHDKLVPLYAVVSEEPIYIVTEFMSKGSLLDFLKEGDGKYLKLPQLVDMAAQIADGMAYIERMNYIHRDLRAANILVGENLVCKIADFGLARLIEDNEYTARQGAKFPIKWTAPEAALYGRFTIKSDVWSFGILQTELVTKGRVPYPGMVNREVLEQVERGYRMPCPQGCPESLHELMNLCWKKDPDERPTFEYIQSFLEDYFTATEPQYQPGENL

The experiment concerns the target YAP1 (65 kd Yes-associated protein) (UniProt P46937). As to the kind of experiment: YAP1 immunoprecipitation from SW480 lysate, immunoblot. For orientation: A western blot detects proteins with antibodies after separation by electrophoresis.

These are yes or no findings as the source states them, for the method shown. Some results given as binding are weak or reduced against the parent protein; the word gives no strength.

For “YES1 (Yamaguchi sarcoma viral oncogene homolog 1) (from UniProt P07947 2-543) (enzyme)”, the binding result was “binds”.
